The assay deals with Protein kinase C (PKC).

Each structure is given as a SMILES string. pIC50: −log10 of the molar value.

In turn, `CC/C(=C(\c1ccccc1)c1ccc(OCCN(C)C)cc1)c1ccccc1` [TAMOXIFEN] gave a negative-log IC50 (pIC50) of 5.00 to 6.00.

These data come from ChEMBL document CHEMBL3861995 (Bioorg Med Chem, 2016).
